According to PubChem BioAssay AID504375 (National Center for Advancing Translational Sciences (NCATS), 2011):
Hit rate of the full screen: of about 1,600 compounds, about 25 (2%) were called active. Inconclusive results (about 7%) are left out. Calls follow the shape of the dose curve; as a rule, active = well fitted inhibition curve with a large enough effect; inconclusive = small, poorly fitted or top-dose-only effect, or effect the other way; inactive = no such curve, though single readings can be large or run the other way. This is one part of the list.

Chains of the proteins cited; added tags and fusions are not shown.
UniProt Q01196, whole entry, looked up: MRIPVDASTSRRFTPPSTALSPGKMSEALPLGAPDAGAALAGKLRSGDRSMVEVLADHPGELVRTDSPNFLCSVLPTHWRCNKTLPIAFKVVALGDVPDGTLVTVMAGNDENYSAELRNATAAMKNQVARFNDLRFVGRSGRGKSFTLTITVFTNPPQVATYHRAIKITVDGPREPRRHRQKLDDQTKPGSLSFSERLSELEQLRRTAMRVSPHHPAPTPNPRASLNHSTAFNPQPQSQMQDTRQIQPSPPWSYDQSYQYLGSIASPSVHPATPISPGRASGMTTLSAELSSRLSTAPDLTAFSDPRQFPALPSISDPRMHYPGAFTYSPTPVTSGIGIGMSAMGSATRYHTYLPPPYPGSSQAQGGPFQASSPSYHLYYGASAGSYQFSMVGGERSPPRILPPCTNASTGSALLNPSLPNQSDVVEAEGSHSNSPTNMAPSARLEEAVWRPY
UniProt Q13951, whole entry, looked up: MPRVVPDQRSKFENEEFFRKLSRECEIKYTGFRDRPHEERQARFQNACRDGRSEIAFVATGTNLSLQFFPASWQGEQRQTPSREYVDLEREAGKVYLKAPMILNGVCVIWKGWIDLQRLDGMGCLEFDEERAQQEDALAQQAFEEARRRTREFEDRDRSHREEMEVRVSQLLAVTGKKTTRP

The compounds below were run against Runt-related transcription factor 1 (Homo sapiens) + Core-binding factor subunit beta (Homo sapiens) (UniProt Q01196+Q13951) (assay: qHTS Assay for Compounds Blocking the Interaction Between CBF-beta and RUNX1 for the Treatment of Acute Myeloid Leukemia: Hit Validation with Orthogonal Assay). Conditions: CBFbeta-RUNX1 binding orthogonal assay, biochemical; series mostly up to 41 µM; activity change, negative = inhibition: at the top concentration.
Excerpt: NIH Chemical Genomics Center [NCGC]
NIH Molecular Libraries Probe Production centers Network [MLPCN]
Assay Submitter (PI): Paul Liu
Core Binding Factor (CBF) abnormalities are associated with 20-25% of all acute myeloid leukemias (AML), of which 5-10% are further sub classified as acute myelomonocytic leukemia with eosinophilia, also known as M4Eo in the FAB classification scheme. This subtype of leukemia is usually associated with chromosome 16 inversion (p13:q22). Chromosome 16 inversion results in formation of the fusion oncogene CBFB-MYH11, which encodes the fusion protein CBF-beta-SMMHC.
It has been hypothesized that the interference of CBF-beta and RUNX1 binding could have therapeutic implications for patients with CBF mediated leukemias. We developed a CBF-beta and RUNX1 binding assay in AlphaScreenTM format and optimized it for high throughput screening to search for inhibitors. The goal of this project is to screen MLPCN's compound collection (MLSMR) for identifying the inhibitors of the interaction between CBF-beta and RUNX1 proteins as research probes. If these probes work well in the animal models, the ultimate goal of this project is to development a new drug treatment for this disease.
This assay can not be used to assess how apparent inhibitors interfere with protein binding, and whether inhibitors specifically bind to either protein. Disruption of this protein-protein interaction, through any mechanism, is the intended target activity.
The present data set was run to confirm the activity of hits from the primary screen using an orthogonal assay technology for measuring protein-protein interaction disruption.
A TR-FRET (time resolved fluorescence resonance energy transfer) assay was performed using the same assay buffer, protein concentrations and incubation times as described previously in the AlphaScreen assay, except that terbium (Tb+) labeled anti-his-antibody and XL665 linked streptavidin were used to capture the binding signal. The Tb+ labeled anti-his-antibody captures His(6)-CBF and XL665 linked streptavidin binds to biotin-RUNX1. The binding of RUNX1 to CBFbrings Tb+ and XL665 to proximity resulting in a TR-FRET signal. Briefly, in a white 384-well plate, 10 µl/well of mixture of biotin-RUNX1 and His(6)-CBFwere incubated with 10 µl/well buffer (positive control) or 10 µl/well compounds (negative control) for 20 min followed by an addition of 10 µl/well of Tb+ labeled anti-his(6)-antibody and XL665 linked streptavidin. After 90 min of incubation in the dark, the assay plate was measured in the Envision plate reader using TR-FRET detection mode. For the 1536-well plate format, 3 µl/well mixture of biotin-RUNX1 and His(6)-CBF (30 nM per protein) was incubated with 23 nl/well compound (dissolved in 100% DMSO) or the equivalent DMSO concentration (positive control) for 30 min followed by the addition of 1 µl/well of 0.44 ng Tb+ labeled anti-his(6)-antibody and 5 nM streptavodin-XL665. After 90 min of incubation, the assay plate was measured in the Envision plate reader.
The TR-FRET assay for detecting interaction between HIV-I Tat and […] was similarly performed with the recombinant full-length HIV-I Tat CLADE B and HIV-I Tat Biotin conjugated proteins supplied by Diatheva (Fano, Italy). Briefly, the His-CBF and Biotin-RUNX1 complex at a working concentration of 83.3 nM per protein were pre-incubated in assay buffer for 10 minutes on ice. Then HIV-I Tat or unlabeled CBF were added to reach final concentrations (Supplementary Figure 4b) and incubated for 5 minutes. Finally anti-His antibody and streptavidin-XL665 at a final concentration of 2.2 ng and 5 nM, respectively, were added to the plate, which was incubated for 1 hr prior to reading on the PerkinElmer Envision plate reader.
Keywords: MLSMR, MLPCN, NIH Roadmap, qHTS, NCGC, Core binding factor, CBF, CBF-beta, Acute myeloid leukemia
% is scaled to controls: 0 for no effect and ±100 for the full control effect.

Activity change, negative = inhibition, inactive:
Cc1nn2c(NC(C)C)c3c(nc2c1-c1ccccc1)CCC3 16.6%, Oc1ccc(Br)cc1/C=N/N1CCN(Cc2cccc3ccccc23)CC1 2.24%, Cc1ccc2nc(-c3ccc4c(c3)OCCO4)cn2c1 -6.52%, Cc1c(NC(=O)Nc2c(Cl)cccc2Cl)c(=O)n(-c2ccccc2)n1C 21.8%, CCN(CC)CCCN=Cc1c(O)n(-c2ccccc2C)c(=O)c2ccccc12 13.9%, CCN(CC)C(=O)Oc1cc(COC)nc(-c2ccccc2)n1 -3.35%, Cc1ccc(CSc2nnc([C@@H]3CCCN3C(=O)OC(C)(C)C)o2)cc1 15.5%, CCN(CC(=O)Nc1ccc(C(=O)Nc2ccc(OC)cc2)cc1)Cc1nc2ccccc2c(=O)[nH]1 8.29%, CCOC(=O)c1ccc(N2CCCCC2)c(NS(=O)(=O)c2cccc(C(F)(F)F)c2)c1 10.6%, Cc1cc([N+](=O)[O-])nn1Cc1ccc(C(=O)N/N=C/c2ccc(N(C)C)cc2)cc1 37.7%, O=C(CN1C(=O)NC2(CCCCC2)C1=O)Nc1cccc(S(=O)(=O)N2CCOCC2)c1 -1.5%, CC1(C)Cc2nc(-c3ccccc3)nc(SCC(O)CO)c2CO1 (stereo not given) -10.9%, N/C(CC1CC1(Cl)Cl)=N\OC(=O)c1ccccc1 (stereo not given) 1.08%, CC(=O)c1cnn(-c2ccc(Cl)cc2)c1C 0.0856%, OCCNC(=S)NCc1ccccc1 -1.68%, Cn1c2c(c(=O)n(C)c1=O)C(c1cccc(F)c1)C(C#N)=C(N)O2 (stereo not given) 6.06%, COc1cc(C)nc(NC(=S)N(C)C(=O)c2ccccc2)n1 5.33%, CSc1nc2cc(S(=O)(=O)N3CCCCC3)ccc2s1 1.66%, CN(CC(O)CN1CCOCC1)S(=O)(=O)O (stereo not given) 15.8%, C/C(=N/NC(=O)CCc1c(C)n[nH]c1C)c1cccc([N+](=O)[O-])c1 37.8%, CN1CCN(c2nnc(-c3ccccc3)c(-c3ccccc3)n2)CC1 26.7%, CCN(c1cccc2ccccc12)S(=O)(=O)c1ccc(Cl)nc1 2.34%, Cc1ccc(CNS(=O)(=O)c2ccc(C(F)(F)F)cc2)n1C -9.15%, O=C(/C=C/c1ccc(O)c(O)c1)c1ccccc1O 15.8%, CCCCC(=O)Nc1ccc(NC(=S)NC(=O)c2ccco2)cc1OC -1.9%, CCN(CC)S(=O)(=O)c1ccc(N=Nc2c(N)[nH]c(=O)[nH]c2=O)cc1 12.6%, Cc1ccc(S(=O)(=O)Oc2ccccc2/C=C2/SC(=O)NC2=O)cc1 26.1%, CC(C)c1ccc(-c2nc3ccccc3s2)cc1 -8.49%, CCC(=O)Nc1cccc(C(=O)OC)c1 1.37%, COc1ccc(CC(=O)n2[nH]c(=O)ccc2=O)cc1OC -2.94%, Nc1cc2ccncc2c2ccccc12 25.6%, O=C1N=C(N2CCc3ccccc3C2)S/C1=C\c1ccc(O)cc1 32.5%, O=C(/C=C/c1ccccc1Cl)Nc1ccccc1 10.6%, CC(C)[C@H](NC(=O)OC(C)(C)C)C(=O)N/N=C/c1ccc2nccnc2c1 30%, c1ccc(-c2n[nH]c(-c3ccccn3)n2)nc1 -1.29% [at 82.4 µM], Cc1cccc(C)c1NC(=S)N/N=C/c1ccc(C(=O)O)cc1 -10.5%, Cc1ccc(Oc2ncccc2N)c2c1CCC2 26%, COc1ccc(C(=O)COc2ccc(C)cc2NC(C)=O)cc1 1.31%, Cc1ccc(Cn2c(N/N=C/c3ccncc3)nc3c2c(=O)n(C)c(=O)n3C)cc1 16.5%, COc1ccccc1C1=NOC(COc2ccc3c(C)cc(=O)oc3c2)C1 (stereo not given) -2.08%, CCNc1ccc([N+](=O)[O-])cc1 6.14%, COC(CNc1ccc([N+](=O)[O-])c(NCC(OC)OC)c1C#N)OC 37.5%, C#CCSc1nc(=O)c2cccnc2n1-c1ccc(C)cc1 -2.96%, CCCc1cc(=O)c2ccc(OCC(C)=O)cc2o1 -7.77%, O=S(=O)(Nc1ccc(Cl)cc1)c1ccc2c(c1)CCO2 -5.63%, COc1ccc2c(c1)CCN1C2CCN2C(=O)CCC21 (stereo not given) 8.67%, C/C(Cc1nnn(-c2cc(C)on2)n1)=N\O -3.29%, CC(=O)NNC(=S)Nc1cccc(F)c1 4.2%, COc1cccc(/C=N/n2nnnc2N)c1 8.92%, NNC(=O)c1ccc(COc2ccc3ccccc3c2)o1 6.03%, c1ccc(Nc2nnc(-c3cccc4ccccc34)o2)cc1 -3.52%, O=C(Nc1ccc(F)cc1)OCCOc1ccc(Br)cc1 -3.27%, COc1ccc(/C(C)=N/NC(=O)Cn2nc([N+](=O)[O-])cc2C)cc1 15.2%, CC(C)(C)OC(=O)N[C@@H](Cc1ccccc1)c1nnc(SCC(N)=O)o1 -1.79%, CC1(C)CCSC(/C=C/c2ccccc2)=N1 1.41%, Nc1c(Cl)ncnc1N/N=C/c1ccncc1 71.1%, COc1ccccc1C(=O)N1CCC(N2CCN(c3ccccc3OC)CC2)CC1 8.69%, COC(=O)c1ccc(Cn2nc([N+](=O)[O-])c(Br)c2C)cc1 26.6%, O=S(=O)(Nc1ccc(C(F)(F)F)cn1)c1ccccc1 13.6%, O=C(NCCC1CC1(Cl)Cl)Nc1ccccc1 (stereo not given) 6.85%
